Laboratory results as given in patent US20240124528A1, “ANTAGONIST OF INTERLEUKIN-17B RECEPTOR (IL-17RB) AND USE THEREOF” (Academia Sinica, priority 2020, published 2024).
Results are given in words; binding and its absence hold for the method and conditions named. In cells and extracts the contact can be indirect. Some entries that bind do so weakly or less than the wild type. For part of these data: Sequences can lack the tags named with a protein.

By UniProt entry, the sequences of proteins in these tests, tags left out.
UniProt O43734: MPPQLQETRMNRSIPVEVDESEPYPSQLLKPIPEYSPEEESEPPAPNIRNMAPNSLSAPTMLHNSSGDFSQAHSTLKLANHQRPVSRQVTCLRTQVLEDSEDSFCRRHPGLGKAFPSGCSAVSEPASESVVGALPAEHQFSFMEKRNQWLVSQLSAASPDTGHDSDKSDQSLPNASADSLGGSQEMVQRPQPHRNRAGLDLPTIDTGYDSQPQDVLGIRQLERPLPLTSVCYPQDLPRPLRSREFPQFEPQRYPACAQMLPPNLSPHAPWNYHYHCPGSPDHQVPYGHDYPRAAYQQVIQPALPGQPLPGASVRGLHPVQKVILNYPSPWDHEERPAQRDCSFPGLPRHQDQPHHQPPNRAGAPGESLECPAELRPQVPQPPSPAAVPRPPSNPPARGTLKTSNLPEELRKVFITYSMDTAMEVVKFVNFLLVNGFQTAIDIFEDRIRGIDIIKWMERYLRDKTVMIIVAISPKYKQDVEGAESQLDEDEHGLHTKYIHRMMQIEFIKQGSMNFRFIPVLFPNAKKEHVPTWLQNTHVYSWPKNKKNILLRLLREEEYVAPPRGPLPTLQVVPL
UniProt Q2M2I8: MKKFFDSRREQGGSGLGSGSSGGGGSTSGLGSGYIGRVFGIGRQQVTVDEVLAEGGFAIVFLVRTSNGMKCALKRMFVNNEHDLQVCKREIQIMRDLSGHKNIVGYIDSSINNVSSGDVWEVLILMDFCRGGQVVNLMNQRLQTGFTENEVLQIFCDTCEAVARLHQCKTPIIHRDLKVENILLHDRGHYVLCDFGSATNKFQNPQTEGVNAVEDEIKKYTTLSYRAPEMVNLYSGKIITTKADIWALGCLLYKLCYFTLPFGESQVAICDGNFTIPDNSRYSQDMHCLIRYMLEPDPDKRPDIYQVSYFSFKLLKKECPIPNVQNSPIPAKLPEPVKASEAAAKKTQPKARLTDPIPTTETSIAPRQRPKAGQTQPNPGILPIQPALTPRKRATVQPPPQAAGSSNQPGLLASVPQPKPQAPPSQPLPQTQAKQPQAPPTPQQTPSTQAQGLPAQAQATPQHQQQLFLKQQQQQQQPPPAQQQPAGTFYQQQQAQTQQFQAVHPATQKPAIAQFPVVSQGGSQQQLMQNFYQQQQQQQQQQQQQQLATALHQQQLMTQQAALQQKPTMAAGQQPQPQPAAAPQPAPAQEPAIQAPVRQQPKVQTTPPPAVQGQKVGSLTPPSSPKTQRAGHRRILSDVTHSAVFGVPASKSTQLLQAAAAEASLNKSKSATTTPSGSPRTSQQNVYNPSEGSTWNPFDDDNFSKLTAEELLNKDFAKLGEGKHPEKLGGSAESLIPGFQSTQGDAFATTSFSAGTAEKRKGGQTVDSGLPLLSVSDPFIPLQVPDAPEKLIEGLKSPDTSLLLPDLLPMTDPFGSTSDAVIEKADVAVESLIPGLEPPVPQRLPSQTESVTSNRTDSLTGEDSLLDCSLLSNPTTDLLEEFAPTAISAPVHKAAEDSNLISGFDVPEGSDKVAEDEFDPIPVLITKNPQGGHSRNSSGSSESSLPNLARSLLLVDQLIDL
UniProt Q5TCX8: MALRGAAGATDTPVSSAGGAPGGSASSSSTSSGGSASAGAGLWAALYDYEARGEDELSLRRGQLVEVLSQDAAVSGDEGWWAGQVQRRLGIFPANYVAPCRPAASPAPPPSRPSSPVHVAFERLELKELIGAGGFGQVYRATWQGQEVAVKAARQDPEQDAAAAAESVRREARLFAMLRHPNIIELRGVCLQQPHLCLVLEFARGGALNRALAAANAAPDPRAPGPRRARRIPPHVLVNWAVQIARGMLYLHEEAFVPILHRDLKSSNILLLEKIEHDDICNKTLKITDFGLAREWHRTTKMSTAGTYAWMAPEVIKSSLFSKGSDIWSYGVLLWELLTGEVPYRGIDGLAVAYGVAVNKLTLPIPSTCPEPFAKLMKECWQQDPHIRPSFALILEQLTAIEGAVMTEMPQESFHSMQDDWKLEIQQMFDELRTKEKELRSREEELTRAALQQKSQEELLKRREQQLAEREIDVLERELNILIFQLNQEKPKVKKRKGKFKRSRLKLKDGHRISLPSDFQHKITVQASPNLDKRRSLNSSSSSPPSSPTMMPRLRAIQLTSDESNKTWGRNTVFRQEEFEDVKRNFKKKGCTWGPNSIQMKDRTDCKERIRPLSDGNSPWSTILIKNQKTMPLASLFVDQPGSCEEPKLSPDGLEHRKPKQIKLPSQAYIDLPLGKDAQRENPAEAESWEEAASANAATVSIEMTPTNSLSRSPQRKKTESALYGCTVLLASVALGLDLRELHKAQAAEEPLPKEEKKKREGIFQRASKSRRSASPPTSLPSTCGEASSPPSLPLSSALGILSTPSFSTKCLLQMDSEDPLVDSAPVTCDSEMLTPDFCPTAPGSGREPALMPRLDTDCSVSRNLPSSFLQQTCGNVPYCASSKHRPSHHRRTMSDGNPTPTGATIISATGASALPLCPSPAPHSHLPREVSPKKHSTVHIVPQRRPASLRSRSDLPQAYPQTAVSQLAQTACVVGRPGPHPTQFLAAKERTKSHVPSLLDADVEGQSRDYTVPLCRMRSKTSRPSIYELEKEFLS
UniProt Q86Z02: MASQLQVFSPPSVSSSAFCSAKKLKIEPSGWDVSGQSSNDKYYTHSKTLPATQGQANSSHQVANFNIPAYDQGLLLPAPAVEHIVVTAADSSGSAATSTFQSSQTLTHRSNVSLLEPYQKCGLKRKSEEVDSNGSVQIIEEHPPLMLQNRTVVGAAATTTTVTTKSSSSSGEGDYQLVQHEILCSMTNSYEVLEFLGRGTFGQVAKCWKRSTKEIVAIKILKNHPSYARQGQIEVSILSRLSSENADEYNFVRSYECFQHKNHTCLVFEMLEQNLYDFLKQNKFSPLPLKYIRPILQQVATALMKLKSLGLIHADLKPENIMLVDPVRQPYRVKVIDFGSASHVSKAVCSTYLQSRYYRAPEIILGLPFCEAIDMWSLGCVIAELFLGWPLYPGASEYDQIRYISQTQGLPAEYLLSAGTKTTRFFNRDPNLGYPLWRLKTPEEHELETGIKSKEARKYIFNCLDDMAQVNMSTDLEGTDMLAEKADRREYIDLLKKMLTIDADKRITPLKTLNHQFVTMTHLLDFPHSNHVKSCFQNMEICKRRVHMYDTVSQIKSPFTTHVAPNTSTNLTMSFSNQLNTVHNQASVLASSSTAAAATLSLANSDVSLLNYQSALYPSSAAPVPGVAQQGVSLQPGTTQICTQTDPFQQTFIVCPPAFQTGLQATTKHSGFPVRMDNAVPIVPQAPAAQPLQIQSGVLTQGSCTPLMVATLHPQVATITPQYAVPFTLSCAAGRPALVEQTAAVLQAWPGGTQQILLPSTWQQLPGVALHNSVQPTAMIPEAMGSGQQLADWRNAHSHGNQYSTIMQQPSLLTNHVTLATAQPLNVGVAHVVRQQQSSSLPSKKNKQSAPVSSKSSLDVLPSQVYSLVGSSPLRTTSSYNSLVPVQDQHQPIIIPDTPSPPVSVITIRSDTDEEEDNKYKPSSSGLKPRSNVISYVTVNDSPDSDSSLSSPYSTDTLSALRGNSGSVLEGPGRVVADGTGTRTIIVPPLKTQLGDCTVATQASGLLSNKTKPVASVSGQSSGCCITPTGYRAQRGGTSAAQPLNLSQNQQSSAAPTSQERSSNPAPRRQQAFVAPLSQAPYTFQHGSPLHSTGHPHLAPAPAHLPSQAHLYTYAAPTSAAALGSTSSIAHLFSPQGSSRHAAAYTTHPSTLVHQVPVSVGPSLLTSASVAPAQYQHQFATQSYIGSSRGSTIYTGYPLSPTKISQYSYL

Experiments:
[1] = biological target: T1, IL-17RB-Flag (Flag-tagged IL-17RB, wild type) (human) (UniProt Q9NRM6); test: co-IP with anti-Flag agarose, IL-17RB-KO BxPC3 cells, rIL-17B (FIG. 6G)
T1 sequence: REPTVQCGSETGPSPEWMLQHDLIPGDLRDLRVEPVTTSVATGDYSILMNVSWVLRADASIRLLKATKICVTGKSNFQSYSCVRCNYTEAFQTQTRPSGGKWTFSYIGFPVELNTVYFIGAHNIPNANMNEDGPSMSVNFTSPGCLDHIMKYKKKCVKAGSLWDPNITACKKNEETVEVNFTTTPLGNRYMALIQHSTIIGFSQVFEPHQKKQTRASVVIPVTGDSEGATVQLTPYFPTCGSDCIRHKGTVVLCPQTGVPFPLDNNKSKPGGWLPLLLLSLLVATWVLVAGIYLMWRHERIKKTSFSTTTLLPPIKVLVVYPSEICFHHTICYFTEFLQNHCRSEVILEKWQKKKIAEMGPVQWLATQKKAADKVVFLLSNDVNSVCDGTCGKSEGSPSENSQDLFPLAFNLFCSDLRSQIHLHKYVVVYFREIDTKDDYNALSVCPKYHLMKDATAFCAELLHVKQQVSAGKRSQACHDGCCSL

[2] = biological target: T2, interleukin-17 receptor B (IL-17RB), human, endogenous in pancreatic cancer cells (human) (UniProt Q9NRM6); test: co-IP with anti-IL-17RB, CFPAC1 cells, rIL-17B dose series, immunoblot (FIG. 3B)
T2 sequence: T1 sequence

[3] = biological target: T3, IL-17RB ΔQ484˜S502, HA-tagged (human) (UniProt Q9NRM6); test: reciprocal co-IP, 293T cells, rIL-17B (FIG. 5C); binding kept, inferred from 'alone'
T3 sequence: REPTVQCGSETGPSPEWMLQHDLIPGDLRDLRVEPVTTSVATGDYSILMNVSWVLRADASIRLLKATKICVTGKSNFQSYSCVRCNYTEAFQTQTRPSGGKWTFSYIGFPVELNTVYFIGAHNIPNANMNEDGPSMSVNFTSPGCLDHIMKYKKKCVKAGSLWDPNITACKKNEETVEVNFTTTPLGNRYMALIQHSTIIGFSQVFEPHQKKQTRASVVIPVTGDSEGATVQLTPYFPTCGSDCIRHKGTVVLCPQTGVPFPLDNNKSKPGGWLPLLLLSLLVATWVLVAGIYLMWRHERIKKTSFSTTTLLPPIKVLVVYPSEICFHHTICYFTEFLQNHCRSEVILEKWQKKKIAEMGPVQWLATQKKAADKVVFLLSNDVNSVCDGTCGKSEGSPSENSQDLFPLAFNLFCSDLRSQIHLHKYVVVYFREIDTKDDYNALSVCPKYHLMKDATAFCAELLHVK

[4] = biological target: T4, IL-17RB ΔI373˜T384, HA-tagged (human) (UniProt Q9NRM6); test: as above
T4 sequence: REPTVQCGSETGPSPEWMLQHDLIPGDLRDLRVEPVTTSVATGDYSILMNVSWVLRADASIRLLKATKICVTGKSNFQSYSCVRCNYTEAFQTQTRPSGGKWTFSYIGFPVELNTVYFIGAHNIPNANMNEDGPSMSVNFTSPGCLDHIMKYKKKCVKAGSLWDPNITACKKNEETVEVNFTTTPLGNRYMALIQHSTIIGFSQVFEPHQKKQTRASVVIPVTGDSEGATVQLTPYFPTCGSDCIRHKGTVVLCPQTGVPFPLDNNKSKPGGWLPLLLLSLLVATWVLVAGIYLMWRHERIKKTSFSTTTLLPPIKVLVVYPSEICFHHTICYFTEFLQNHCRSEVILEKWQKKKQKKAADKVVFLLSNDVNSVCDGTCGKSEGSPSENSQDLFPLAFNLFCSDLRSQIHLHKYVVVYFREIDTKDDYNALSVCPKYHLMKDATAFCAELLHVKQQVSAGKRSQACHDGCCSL

[5] = biological target: T5, IL-17RB ΔK470˜Q484, HA-tagged (human) (UniProt Q9NRM6); test: as above
T5 sequence: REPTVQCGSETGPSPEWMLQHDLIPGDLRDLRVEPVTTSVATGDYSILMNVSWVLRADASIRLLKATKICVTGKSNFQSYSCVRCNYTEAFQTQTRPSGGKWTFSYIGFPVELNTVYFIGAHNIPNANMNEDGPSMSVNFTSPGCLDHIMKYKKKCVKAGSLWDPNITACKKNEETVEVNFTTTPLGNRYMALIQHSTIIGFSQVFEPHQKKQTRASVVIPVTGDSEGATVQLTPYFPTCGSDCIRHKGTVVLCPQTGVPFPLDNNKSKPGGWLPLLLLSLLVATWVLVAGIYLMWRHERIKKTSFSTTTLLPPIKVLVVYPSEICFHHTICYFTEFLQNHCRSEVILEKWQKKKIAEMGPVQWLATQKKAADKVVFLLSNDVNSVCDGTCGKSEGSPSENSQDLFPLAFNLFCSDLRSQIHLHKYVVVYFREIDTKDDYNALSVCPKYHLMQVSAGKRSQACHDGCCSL

[6] = biological target: T6, IL-17RB ΔH346˜F354, HA-tagged (human) (UniProt Q9NRM6); test: as above
T6 sequence: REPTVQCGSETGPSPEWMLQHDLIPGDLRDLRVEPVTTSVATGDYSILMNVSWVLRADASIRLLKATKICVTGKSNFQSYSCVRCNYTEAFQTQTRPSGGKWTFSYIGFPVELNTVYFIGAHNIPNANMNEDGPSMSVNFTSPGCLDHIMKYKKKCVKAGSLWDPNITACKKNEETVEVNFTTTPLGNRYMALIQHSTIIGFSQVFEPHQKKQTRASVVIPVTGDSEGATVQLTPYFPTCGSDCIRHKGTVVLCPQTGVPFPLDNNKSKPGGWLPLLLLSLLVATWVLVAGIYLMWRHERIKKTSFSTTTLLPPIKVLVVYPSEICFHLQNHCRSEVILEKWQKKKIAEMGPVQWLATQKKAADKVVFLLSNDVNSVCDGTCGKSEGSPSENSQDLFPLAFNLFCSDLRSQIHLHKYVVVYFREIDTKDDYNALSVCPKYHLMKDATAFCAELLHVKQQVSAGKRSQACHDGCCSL

[7] = biological target: T7, IL-17RB ΔF423˜F430, HA-tagged (human) (UniProt Q9NRM6); test: as above
T7 sequence: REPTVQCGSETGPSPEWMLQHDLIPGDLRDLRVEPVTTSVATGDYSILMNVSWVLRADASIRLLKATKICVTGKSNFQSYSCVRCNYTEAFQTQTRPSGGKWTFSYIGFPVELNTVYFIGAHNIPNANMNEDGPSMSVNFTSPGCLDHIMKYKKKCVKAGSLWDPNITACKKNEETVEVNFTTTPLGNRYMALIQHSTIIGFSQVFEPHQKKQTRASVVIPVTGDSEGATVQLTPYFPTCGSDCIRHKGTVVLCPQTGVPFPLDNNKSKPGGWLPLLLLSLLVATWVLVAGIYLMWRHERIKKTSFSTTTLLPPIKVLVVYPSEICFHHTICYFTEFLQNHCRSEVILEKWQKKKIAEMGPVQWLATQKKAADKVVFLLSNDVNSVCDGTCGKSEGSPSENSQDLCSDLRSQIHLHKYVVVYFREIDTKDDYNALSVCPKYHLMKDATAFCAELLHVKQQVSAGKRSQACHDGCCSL

[8] = biological target: T8, IL-17RB ΔN458˜V462, HA-tagged (human) (UniProt Q9NRM6); test: as above
T8 sequence: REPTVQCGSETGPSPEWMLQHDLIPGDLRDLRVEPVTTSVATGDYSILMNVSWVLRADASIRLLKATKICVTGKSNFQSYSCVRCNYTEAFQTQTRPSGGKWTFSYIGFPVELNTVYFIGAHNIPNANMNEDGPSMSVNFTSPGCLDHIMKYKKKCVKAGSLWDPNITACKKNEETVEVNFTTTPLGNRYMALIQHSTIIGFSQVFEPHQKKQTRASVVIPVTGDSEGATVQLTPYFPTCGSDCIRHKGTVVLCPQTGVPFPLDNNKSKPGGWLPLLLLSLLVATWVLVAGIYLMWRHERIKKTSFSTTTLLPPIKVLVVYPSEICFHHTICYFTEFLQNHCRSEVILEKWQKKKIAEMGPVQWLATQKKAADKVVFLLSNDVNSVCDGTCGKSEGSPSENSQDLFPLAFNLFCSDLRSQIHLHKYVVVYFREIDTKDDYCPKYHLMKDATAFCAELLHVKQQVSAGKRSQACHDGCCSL

With “ACT1, endogenous (from UniProt O43734 1-574)” the binding [1] was “binds”.

“AP2-associated protein kinase 1 (AAK1), endogenous (from UniProt Q2M2I8 1-961) (enzyme)” was tested, and the binding [2] was “binds”.

In the case of “Flag-MLK4 (from UniProt Q5TCX8 1-1036) (enzyme)”, the binding [3] was “binds”, the binding [4] was “binds” and the binding [5] was “binds”. The binding [6] was “binds”, the binding [7] was “binds” and the binding [8] was “binds”.

With “homeodomain-interacting protein kinase 1 (HIPK1), endogenous (from UniProt Q86Z02 1-1210) (enzyme)” the binding [2] was “binds”.
